Data published in US20040102383A1, “Growth inhibition and eradication of solid tumors using neuroendocrine resetting therapy and photodynamic therapy” (priority 1996, published 2004).
At least one compound was matched to its structure with a doubt left.

What was measured:
EMT-6 cells [1] = assay: EMT-6 implanted tumor mouse model: PDT with EtNBS with or without bromocriptine (Example 4); format: in vivo, Balb/c mice
Protocol: (§1) Adult (6-7 wk old) male Balb/c mice are subcutaneously injected with EMT-6 cells (1.7×10^6 cells) on the hind quarter and are divided into four groups (n=10 per group) and are treated as follows: group 1 receives photodynamic therapy (PDT) at 14 days after tumor inoculation. PDT consists of subcutaneously injecting a benzophenothiazine photosensitizer (EtNBS)(7.5 mg/kg of body weight) and 3 hrs later irradiating the tumor with 652 nm light at a power density of 50 mW/cm2 and a total energy of 100 J/cm^2. Group 2 receives intraperitoneal bromocriptine (50 mcg/mouse) at 0 hours after light onset starting at 7 days after tumor inoculation and continuing for 14 days. Group 3 receives both PDT (as described above) and intraperitoneal bromocriptine (as described above). Group 4 remains untreated (control). Fourteen days following PDT tumor volume is determined in all animals.

immune responses = details: timed daily administration within a specific window of time; no effect outside it; cited from earlier work
EMT-6 cells [2] = assay: EMT-6 implanted tumor mouse model: PDT with EtNBS with or without bromocriptine and melatonin (Example 6); format: in vivo, Balb/c mice
Protocol: as §1, with “of 50 mW/cm^2 and a” for “of 50 mW/cm2 and a”, “2 receives intraperitoneal melatonin (8 mg/kg) at 10 hours after light onset and intraperitoneal bromocriptine” for “2 receives intraperitoneal bromocriptine”, “intraperitoneal bromocriptine and intraperitoneal melatonin (as described” for “intraperitoneal bromocriptine (as described”

[3] = cited from earlier work

CC(C)C[C@H]1C(=O)N2CCC[C@H]2[C@]2(O)O[C@](NC(=O)[C@@H]3C=C4c5cccc6[nH]c(Br)c(c56)C[C@H]4N(C)C3)(C(C)C)C(=O)N12 [bromocriptine, 2-bromo-alpha-ergocryptine]
tumor volume fourteen days following PDT (EMT-6 cells [1]; EtNBS PDT plus ip bromocriptine): significantly reduced or entirely eradicated
tumor volume fourteen days following PDT (EMT-6 cells [1]; ip bromocriptine alone, 50 mcg/mouse at 0 hours after light onset for 14 days): significantly reduced
inhibition of tumor growth (EMT-6 cells [1]; mice, bromocriptine at times predetermined to reduce prolactin to levels of healthy animals): increases the inhibition of tumor growth
effect on immune function (immune responses): immunosuppressive effect
tumor volume fourteen days following PDT (EMT-6 cells [2]; EtNBS PDT plus ip bromocriptine and ip melatonin): significantly reduced or entirely eradicated
tumor volume fourteen days following PDT (EMT-6 cells [2]; ip melatonin 8 mg/kg at 10 hours plus ip bromocriptine 50 mcg/mouse at 0 hours after light onset, no PDT): significantly reduced

C=Cc1c(C)c2cc3nc(c(CC(=O)N[C@@H](CC(=O)[O-])C(=O)[O-])c4[nH]c(cc5nc(cc1[nH]2)C(C)=C5CC)c(C)c4C(=O)[O-])[C@@H](CCC(=O)[O-])[C@@H]3C.[Na+].[Na+].[Na+].[Na+] [Mono-L-aspartyl chlorin e6]
absorbance maximum [3]: about 664 nm

CCOC(=O)C1=Cc2c3nc(cc4nc(cc5[n-]c(cc6[n-]c2c(C)c6CC)c(C)c5CC)C(C)=C4CC)[C@@H](C)[C@]13CC.[Cl-].[Cl-].[Sn] (racemic) [Tin ethyl etiopurpurin]
absorbance maximum [3]: about 666 nm

C(=Cc1cc[n+](CCC2OCCO2)c2ccccc12)C=C1C=CN(CCC2OCCO2)c2ccccc21 [EDKC, N,N′-bis(2-ethyl-1,3-dioxolane)kryptocyanine]
absorbance maximum [3]: about 700 nm

Oc1cccc(-c2c3nc(c(-c4cccc(O)c4)c4ccc([nH]4)c(-c4cccc(O)c4)c4nc(c(-c5cccc(O)c5)c5ccc2[nH]5)CC4)C=C3)c1 [m-THPC, m-tetrahydrophenylchlorin]
absorbance maximum [3]: about 652 nm
